Experimental data: the supplement of paper PMC7752906
Counter-ions that a name gives are not always drawn. The list shows a part of the results. Single values are uncertain here, since repeats match poorly.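 Test system: Schistosoma mansoni schistosomula, roughly 40 per well, imaged in bright field over time and compared with wells given 0.1% DMSO. Distance read-out: the paper calls a drug a hit when its Mahalanobis distance is at least 2.47, three standard deviations above the DMSO control mean. Degeneracy is the share of worms classified opaque.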

What follows are molecules tested on Schistosoma mansoni schistosomula (assay: degeneracy (percent of somules classified as degenerate/opaque); higher = more parasite degeneration/death; extreme values may be limits of the assay). Conditions: 10 µM; 72 h.

| Structure (SMILES) | degeneracy [%] |
| --- | --- |
| COC(=O)C(c1ccccc1)C1CCCCN1 (stereo unspecified) [Methylphenidate Hydrochloride] | 2.86 |
| CCC(C)(C)O [Amylene Hydrate] | 6.67 |
| C[C@]12Cc3c[nH]nc3C[C@@H]1CC[C@@H]1[C@@H]2CC[C@@]2(C)[C@H]1CC[C@]2(C)O [Stanozolol] | 22.2 |
| COc1ccc(CCN2CCC(Nc3nc4ccccc4n3Cc3ccc(F)cc3)CC2)cc1 [Astemizole] | 100 |
| Oc1cc(Cl)ccc1Oc1ccc(Cl)cc1Cl [Triclosan] | 100 |
| CCC1(CC)C(=O)C=CNC1=O [Pyrithyldione] | 15.8 |
| COC(=O)C1=CCCN(C)C1 [Arecoline Hydrobromide] | 2.17 |
| CC(C)(C)NCC(O)c1cc(Cl)c(N)c(Cl)c1 (stereo unspecified) [Clenbuterol] | 7.14 |
| CNCC(=O)c1ccc(O)c(O)c1 [Adrenolone Hydrochloride] | 2.78 |
| O=C(NC(=O)c1c(F)cccc1F)Nc1cc(Cl)c(OC(F)(F)C(F)C(F)(F)F)cc1Cl (stereo unspecified) [Lufenuron] | 26.9 |
| CCn1cc(C(=O)O)c(=O)c2cc3c(cc21)OCO3 [Oxolinic Acid] | 5.88 |
| C[N+]1(C)[C@@H]2C[C@@H](OC(=O)[C@H](CO)c3ccccc3)C[C@H]1[C@@H]1O[C@@H]12 [Methscopolamine Bromide] | 3.85 |
| CCN(C)C(=O)Oc1cccc([C@H](C)N(C)C)c1 [Rivastigmine Tartrate] | 7.69 |
| C[C@@H]1O[C@@H](O[C@H]2C[C@@H](O)[C@]3(CO)[C@H]4[C@H](O)C[C@]5(C)[C@@H](C6=CC(=O)OC6)CC[C@]5(O)[C@@H]4CC[C@]3(O)C2)[C@H](O)[C@H](O)[C@H]1O [Ouabain] | 71.4 |
| N=C1NC(=O)N2CC12 (stereo unspecified) [Imexon] | 13.2 |
| C[N+]1([O-])[C@@H]2CC[C@H]1C[C@@H](OC(=O)C(CO)c1ccccc1)C2 (stereo partly specified) [Atropine Oxide] | 6.82 |
| COc1ccc(O)c(C(C)(C)C)c1.COc1ccc(O)cc1C(C)(C)C [Butylated Hydroxyanisole] | 100 |
| Nc1ccncc1 [4-aminopyridine] | 9.68 |
| COc1ccc(C(=O)N2CCCC2=O)cc1 [Aniracetam] | 3.57 |
| O=C(O)CCCc1ccc(N(CCCl)CCCl)cc1 [Chlorambucil] | 8.57 |
| CC[C@@H](C(N)=O)N1CCCC1=O [Levetiracetam] | 7.69 |
| O=C1C=C2C=C[C@@H]3C[C@@]2(O1)[C@H]1CCCCN31 [securinine] | 100 |
| CCN[C@@H](C)Cc1cccc(C(F)(F)F)c1 [Dexfenfluramine] | 0 |

3 successive records out of the list so far, for reference:

| Structure (SMILES) | degeneracy [%] |
| --- | --- |
| C[N+]1(C)[C@@H]2C[C@@H](OC(=O)[C@H](CO)c3ccccc3)C[C@H]1[C@@H]1O[C@@H]12 [Methscopolamine Bromide] | 3.85 |
| CCN(C)C(=O)Oc1cccc([C@H](C)N(C)C)c1 [Rivastigmine Tartrate] | 7.69 |
| C[C@@H]1O[C@@H](O[C@H]2C[C@@H](O)[C@]3(CO)[C@H]4[C@H](O)C[C@]5(C)[C@@H](C6=CC(=O)OC6)CC[C@]5(O)[C@@H]4CC[C@]3(O)C2)[C@H](O)[C@H](O)[C@H]1O [Ouabain] | 71.4 |

The list continues:

| Structure (SMILES) | degeneracy [%] |
| --- | --- |
| NC(=O)C[S@@+]([O-])C(c1ccccc1)c1ccccc1 [Armodafinil] | 2.78 |
| CC(C)=CC1C(C(=O)OCc2cccc(Oc3ccccc3)c2)C1(C)C (stereo unspecified) [Phenothrin] | 14.9 |
| COc1cccc(C2(O)CCCCC2CN(C)C)c1 (stereo unspecified) [Tramadol Hydrochloride] | 3.7 |
| COc1cccc(C2(O)CCCCC2CN(C)C)c1 (stereo unspecified) [Tramadol] | 18.9 |
| CC(CCc1ccccc1)NC(C)C(O)c1ccc(O)cc1 (stereo unspecified) [Nylidrin] | 9.68 |
| CN1C[C@H](C(=O)N[C@]2(C)O[C@@]3(O)[C@@H]4CCCN4C(=O)[C@H](Cc4ccccc4)N3C2=O)C[C@@H]2c3cccc4[nH]cc(c34)C[C@H]21 [Dihydroergotamine] | 100 |
| CCCN1C[C@H](CSC)C[C@@H]2c3cccc4[nH]cc(c34)C[C@H]21 [Pergolide] | 15 |
| CNc1ccc(C(=O)CC(O)CCC(C)C2OC(=O)CC(O)CC(=O)CC(O)CC(O)CC(O)CC(O)CC3(O)CC(O)C(C(=O)OC)C(CC(O[C@@H]4O[C@H](C)[C@@H](O)[C@H](N)[C@@H]4O)/C=C/C=C/C=C/C=C/C=C/C=C/C=C/C2C)O3)cc1.COC(=O)C1C(O)CC2(O)CC(O)CC(O)CC(O)CC(O)CC(=O)CC(O)CC(=O)OC(C(C)CCC(O)CC(=O)c3ccc(N)cc3)C(C)/C=C/C=C/C=C/C=C/C=C/C=C/C=C/C(O[C@@H]3O[C@H](C)[C@@H](O)[C@H](N)[C@@H]3O)CC1O2 (stereo partly specified) [mepartricin] | 5.88 |
| Cc1ncc(CNC(=O)N(CCCl)N=O)c(N)n1 [Nimustine] | 9.38 |
| C=C(C)[C@H]1CN[C@H](C(=O)O)[C@H]1CC(=O)O [Kainic Acid] | 0 |
| CC[C@H]1CN2CC[C@H]1C[C@@H]2[C@@H](O)c1ccnc2ccc(OC)cc12 [Hydroquinidine] | 28.6 |
| COc1ccc(CN2CCNCC2)c(OC)c1OC [Trimetazidine] | 0 |
| CC(C)N(CCC(C(N)=O)(c1ccccc1)c1ccccn1)C(C)C (stereo unspecified) [Disopyramide] | 0 |
| Nc1nc(N)nc(NC2CC2)n1 [Cyromazine] | 5.56 |
| O=C1CN=C(c2ccccc2Cl)c2cc([N+](=O)[O-])ccc2N1 [Clonazepam] | 0 |
| COc1ccc2c(c1)[C@]13CCCC[C@@H]1[C@H](C2)N(C)CC3 [Dextromethorphan Hydrobromide] | 32.4 |
| CC(Cc1ccc(O)cc1)NCC(O)c1cc(O)cc(O)c1 (stereo unspecified) [Fenoterol Hydrobromide] | 6.67 |
| C=CCN=C=S [Allylisothiocyanate] | 100 |
| C=CC[C@]1(O)CC[C@H]2[C@@H]3CCC4=CC(=O)CCC4=C3C=C[C@@]21C [Altrenogest] | 21.1 |
| CC(C)CC(N(C)C)C1(c2ccc(Cl)cc2)CCC1 (stereo unspecified) [Sibutramine] | 28.6 |
| CNC1(c2ccccc2Cl)CCCCC1=O (stereo unspecified) [Ketamine] | 11.1 |
| CCN(CC)C(=O)N[C@H]1C=C2c3cccc4[nH]cc(c34)C[C@H]2N(C)C1 [Lisuride] | 72.7 |
| O=C([O-])Cc1ccccc1.[Na+] [Sodium Phenylacetate] | 3.03 |
